The values below come from US6060568A, “Carbene transition metal catalysts” (The Governors of the University of Alberta, priority 1999, dated 2000).

The nature of data set [1]: Solution phase ethylene polymerization, semi-batch reactor (SBR). To be noted: GPC. Here is the method:
(§1) All the solution polymerization experiments described below were conducted using an Autoclave Engineers Zipperclave reactor (500 mL). All the chemicals (solvent, catalyst and cocatalyst) were fed into the reactor batchwise except ethylene which was fed on demand. No product was removed during the polymerization reaction. As are known to those skilled in the art, all the feed streams were purified prior to feeding into the reactor by contact with various absorption media to remove catalysts killing impurities such as water, oxygen, sulfur and polar materials. All components were stored and manipulated under an atmosphere of purified argon or nitrogen. The reactor uses a programmable logical control (PLC) system with Wonderware 5.1 s, oftware for the process control. Ethylene polymerizations were performed in the reactor equipped with an air driven stirrer and an automatic temperature control system.
(§2) The catalyst was dissolved in toluene. The polymerization reaction time is typically 10 minutes. The reaction was terminated by adding 5 mL of methanol to the reactor and the polymer was recovered by evaporation of the solvent. The polymerization activities were calculated based on the ethylene consumption.
(§3) Examples 1-18 were conducted on a solution semi-batch reactor (SBR).
SBR Experimental Conditions with MAO Activation
(§4) Catalyst Concentration 200 μmol/L
PMAO-IP Al/Zr = 300 (mol/mol)
(§5) Reaction Temperature 160° C.
(§6) Reactor Pressure 140 psig total
(§7) Stirring Speed 2000 rpm
(§8) SBR Experirimental Conditions with Trinitylborate Activation
(§9) PMAO-IP 1 mmol/L as impurity scavenger
^a SBR standard MAO screening conditions.
^b Insitu alkylation: PMAOIP (Al/M = 20) premixed with catalyst, the
mixture and tritylborate solution were injected into the reactor
^c SBR standard trityl borate screening conditions.
^d Premix catalyst and cocatalyst.
^e Zr(Bz)4 as scavenger at 1.2 mmol/L. […]

Data set [2] is described as follows: Solution phase copolymerization of ethylene with 1-octene, semi-batch reactor (SBR). To be noted: [CPh3 ][B(C6 F5)4 ]; copolymerization with 20 mL of 1-octene; GPC. The method, then:
Polymer molecular weights and molecular weight distributions were measured by GPC (Waters 150-C) at 140° C. in 1,2,4-trichlorobenzene calibrated using polyethylene standards.
as §1, §2, §3, §8, §4, §9, §5, §6, §7
^f Copolymerization with 20 mL of 1octene. Polymerization activities
were calculated based on polymer weight. 20.7 Br/1000 C detected by NMR
for copolymer produced in run 12.

[3] abbreviates: SBR standard MAO screening: PMAO-IP, 160° C.
Where [4] appears, read: SBR standard trityl borate screening: [CPh3 ][B(C6 F5)4 ].
The mark [5] stands for this setting: [CPh3 ][B(C6 F5)4 ], Zr(Bz)4 as scavenger.
Setting [6] is: [CPh3 ][B(C6 F5)4 ], premix catalyst and cocatalyst.
Setting [7] is: cocatalyst B(C6 F5)3, footnote c conditions.
Where [8] appears, read: [CPh3 ][B(C6 F5)4 ], in situ alkylation, PMAO-IP (Al/M = 20).

Consider [ZrCl2 {C(Ph2 P=NSiMe3)2 }] [Zr-3D], for which, in data set [1] (setting [3]), the “Polymer Mn*10^-3” value was determined as 0.45, the “Polymer Mw*10^-3” value is reported as 52.5 and the “Polymer PD (Mw/Mn)” value is 116.7.
Consider “[Zr{C(Ph2 P=NSimMe3)2 }(CH2 C6 H5)2 ] [Zr-6D]”, for which the “Polymer Mn*10^-3” value worked out at 38.1 in data set [1] (setting [4]); 3.45 in data set [1] (setting [5]); 78.7 in data set [1] (setting [6]); 20.1 in data set [1] (setting [7]); 2.08 in data set [2]. In addition, the “Polymer Mw*10^-3” value in data set [1] (setting [4]) is 153.9; in data set [1] (setting [5]), 199.2; in data set [1] (setting [6]) it was 535.1; in data set [1] (setting [7]), 316.2; in data set [2], 94.8. Moreover, the “Polymer PD (Mw/Mn)” value in data set [1] (setting [4]) is given as 4.04; in data set [1] (setting [5]), 57.7; in data set [1] (setting [6]), 6.8; in data set [1] (setting [7]) it was 15.73; in data set [2], 45.6.
[ZrCl2 {C(Cy2 =NSiMe3)2 }] [Zr-3C]: in data set [1] (setting [3]), the “Polymer Mn*10^-3” value worked out at 0.25, the “Polymer Mw*10^-3” value is 67.3 and the “Polymer PD (Mw/Mn)” value stood at 269.2. Besides, in data set [1] (setting [8]), the “Polymer Mn*10^-3” value was 139.1, the “Polymer Mw*10^-3” value was determined as 643.6 and the “Polymer PD (Mw/Mn)” value worked out at 4.63.
Consider [ZrMe2 {C(Cy2 =NSiMe3)2 }] [Zr-3C-Me2], for which, in data set [1] (setting [4]), the “Polymer Mn*10^-3” value worked out at 127.1, the “Polymer Mw*10^-3” value stood at 449.1 and the “Polymer PD (Mw/Mn)” value was 3.53.
In the case of `[Cl][Zr+2][Cl].c1cc[cH-]c1.c1cc[cH-]c1` [Cp2 ZrCl2, reference compound], in data set [1] (setting [3]), the “Polymer Mn*10^-3” value is 2.2, the “Polymer Mw*10^-3” value is 7.8 and the “Polymer PD (Mw/Mn)” value was 4.6.
